Values from PubChem BioAssay AID1671195 (Yale University, 2021)
Aim: 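Knockdowns that increase or decrease uptake of fluorescent LDL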 (primary screen). Cells: human Huh7 hepatoma cells. Knock-down reagent: siRNA pool against human genes, 18 nM. Duration: about 2 to 2.5 days of knockdown, then 8 h LDL uptake. Challenge: DiI-labelled LDL at 30 µg/ml for 8 h, in lipoprotein-deficient serum medium. Read-out: 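Fluorescent LDL signal imaged in cells, scaled to the plate median, robust z-score for each replicate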. Scale: robust z-score: higher = more LDL uptake after knockdown. Call rule: 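a gene counts as active if at least two replicate z-scores exceed ±2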.
This is one part, drawn at random, of about 22,000 reagents tested. Over the whole deposit, about 1,510 (6.9%) got an active call. 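Active includes knockdowns raising or lowering LDL uptake; positive z-scores mean more uptake, negative mean less.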 Unmarked entries are inactive.

| gene | robust z-score, replicate 1 | robust z-score, replicate 2 | robust z-score, replicate 3 |
| --- | --- | --- | --- |
| SALL4 | 1.11 | 0.714 | 0.285 |
| CES1 | -0.991 | 0.154 | -0.189 |
| CFAP206 | -0.756 | 1.06 | -0.213 |
| BRCA2 | 0.532 | 0.0716 | 0.328 |
| ROBO3 | 0.548 | 0.142 | 1.26 |
| STXBP1 | 0.963 (active) | 2.59 | 3.35 |
| LHX1 | -1.34 | -0.82 | -0.997 |
| TEX55 | 0.782 | 0.491 | 1.16 |
| LINC01720 | -0.0402 | 0.163 | -0.123 |
| MICU2 | 1.28 | 1.3 | 1.25 |
| PAX4 | -1.37 | -1.38 | -0.887 |
| TMEM258 | -0.661 | 0.27 | -0.683 |
| LOC441709 (retired record) | -1.12 | -0.747 | -0.536 |
| CPVL | -0.148 | -0.829 | 0.115 |
| RPL17 | -1.82 | -2.07 | -1.29 |
| GOLGA7 | -0.0469 | -0.476 | -0.154 |
| SVIL | 2.58 (active) | 2.14 | 2.48 |
| ZNF436 | 0.25 | 0.0658 | 0.768 |

Reagents listed above marked active (2):
| gene | robust z-score, replicate 1 | robust z-score, replicate 2 | robust z-score, replicate 3 |
| --- | --- | --- | --- |
| STXBP1 | 0.963 (active) | 2.59 | 3.35 |
| SVIL | 2.58 (active) | 2.14 | 2.48 |

The listing continues.
| gene | robust z-score, replicate 1 | robust z-score, replicate 2 | robust z-score, replicate 3 |
| --- | --- | --- | --- |
| ZBTB6 | -1.13 | -1.47 | -1.35 |
| ARC | -1.2 | -0.998 | -1.32 |
| FUT8 | -1.29 | -1.13 | -1.17 |
| CDCP2 | -0.394 | -0.77 | -0.713 |
| OR4K1 | 0.558 | 0.115 | 0.487 |
| MCTS1 | 1.3 | 1.59 | 1.42 |
| SARS2 | -0.904 | -0.919 | -0.284 |
| HCAR2 | 0.581 (active) | 3.88 | 1.78 |
| CXCL17 | -1.47 | -1.31 | -1.56 |
| LOC391025 (retired record) | -1.21 | -1.12 | -0.863 |
